These are yes or no findings as the source states them, for the method shown. Some results given as binding are weak or reduced against the parent protein; the word gives no strength. Sequences can lack the tags named with a protein.
Legend:
[1] = biological target: canine glycoprotein 96, endoplasmic reticulum isoform of HSP90 (canine) (UniProt P41148); test: CHIEF gel
[2] = biological target: canine glycoprotein 96, endoplasmic reticulum isoform of HSP90 (canine) (UniProt P41148); test: CHIEF gel, 1 µg of recombinant HSP against 15 µg of peptide

binding [1]: binds
binding [2]: binds
Binder: PSQGKGRGLSLSRFSWGAPSQASSGQARMFPNAPYL [MBP100-117_WT1 117-134]
